# PubChem BioAssay AID743454 – Peter MacCallum Cancer Centre, 2014
# Aim: 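Knock-downs lowering viability or raising caspase 3/7 activity in vorinostat-treated resistant cells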 (primary screen)
# Cell system: human HCT116-VR colon cancer cells, selected for vorinostat resistance
# Knock-down reagent: siRNA pool against human genes, 40 nM siRNA pool
# Timing: vorinostat for 24 h, read-out about 72 h after transfection
# Treatment: vorinostat at 2.5 µM final
# Detection: 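Two measures, CellTiter-Fluor viability and luminescent caspase 3/7 activity, each as fold change against same-plate mock wells, mean of duplicates, then screen-wide robust z-score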
# Direction: viability robust z-score: higher = more viable cells than screen typical; caspase robust z-score: higher = more caspase 3/7 activity than screen typical
# Rule for the call: 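a knock-down is a hit when classed RV1 or RV2 for lowered viability, or CA1 or CA2 for caspase activation; those lethal without drug were dropped; hits were retested singly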
# In all, the deposit lists about 18,000 reagents; this is a random part of them. In the full data, 450 (2.5%) got an active call. 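Single biological run; no consistent viability z cut-off exists, so the class columns, not z-scores, define the calls.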 Reagent sequences are not shown.
target gene,viability hit class,caspase hit class,viability robust z-score,caspase robust z-score,activity call
CLUH,no change,no change,-0.2,-0.29,inactive
ASPDH,no change,no change,-0.23,3.76,inactive
HMGXB4,no change,no change,0.39,0.57,inactive
DNAJC17,no change,no change,0.57,-0.05,inactive
WDR83OS,no change,no change,-0.78,2.94,inactive
BNIP2,no change,CA1 (caspase activation),0.8,6.72,active
IFI44L,no change,no change,-0.04,1.11,inactive
EPB42,no change,no change,-0.2,-0.7,inactive
SEMA3C,no change,no change,-1.27,0.87,inactive
H3C6,no change,no change,1.38,-0.64,inactive
GAS8-AS1,no change,no change,-1.07,0.68,inactive
SCN8A,no change,no change,0.03,2.4,inactive
B3GALNT2,no change,no change,-0.1,3.22,inactive
CETN2,no change,no change,-0.13,-0.9,inactive
CNBD2,no change,no change,0.89,-0.15,inactive
WARS1,no change,no change,-0.59,-0.86,inactive
HEBP2,no change,no change,1.23,-0.38,inactive
KRTAP26-1,no change,no change,0.99,0.62,inactive
PXMP4,no change,no change,1.55,0.64,inactive
LCN9,no change,no change,-1.32,0.86,inactive
H2AC18,no change,no change,1.19,-0.67,inactive
EIF4E,no change,no change,-1.23,-0.23,inactive
ZNF548,no change,no change,1.26,4.53,inactive
ZNF780A,no change,no change,-0.08,-1.21,inactive
OBP2A,no change,no change,1.07,1.37,inactive
PDXDC1,no change,no change,-0.77,-0.41,inactive
IFT81,no change,no change,-0.3,-0.43,inactive
ODF1,no change,no change,1.49,0.72,inactive
GP5,no change,no change,-0.04,-0.62,inactive
TNK2,no change,no change,-0.75,-0.7,inactive
ANXA10,no change,no change,-0.7,-0.86,inactive
TBL1Y,no change,no change,-0.9,-0.03,inactive
NAPG,no change,no change,-0.47,0.82,inactive
SPANXN3,no change,no change,-0.39,0.94,inactive
XIRP2,no change,no change,1.28,0.53,inactive
OR5K4,no change,no change,-0.08,-1.17,inactive
CRHR1,no change,no change,-1.19,0.23,inactive
KCND1,no change,no change,-1.29,-0.74,inactive
MAGEA2B,no change,no change,-1.06,-0.6,inactive
